{
  "source": "paper PMC4458714",
  "binders": {"B1": {"name": "Topo II (protein, UniProt P15348 1-1447)", "chain": "MENGNKALSIEQMYQKKSQLEHILLRPDSYIGSVEFTKELMWVYDNSQNRMVQKEISFVPGLYKIFDEILVNAADNKQRDKSMNTIKIDIDPERNMVSVWNNGQGIPVTMHKEQKMYVPTMIFGHLLTSSNYNDDEKKVTGGRNGYGAKLCNIFSTSFTVETATREYKKSFKQTWGNNMGKASDVQIKDFNGTDYTRITFSPDLAKFKMDRLDEDIVALMSRRAYDVAASSKGVSVFLNGNKLGVRNFKDYIDLHIKNTDDDSGPPIKIVHEVANERWEVACCPSDRGFQQVSFVNSIATYKGGRHVDHVVDNLIKQLLEVLKKKNKGGINIKPFQVRNHLWVFVNCLIENPTFDSQTKENMTLQQKGFGSKCTLSEKFINNMSKSGIVESVLAWAKFKAQNDIAKTGGRKSSKIKGIPKLEDANEAGGKNSIKCTLILTEGDSAKSLAVSGLGVIGRDLYGVFPLRGKLLNVREANFKQLSENAEINNLCKIIGLQYKKKYLTEDDLKTLRYGKVMIMTDQDQDGSHIKGLLINFIHTNWPELLRLPFLEEFITPIVKATKKNEELSFYSLPEFEEWKNDTANHHTYNIKYYKGLGTSTSKEAKEYFQDMDRHRILFKYDGSVDDESIVMAFSKKHIESRKVWLTNHMDEVKRRKELGLPERYLYTKGTKSITYADFINLELVLFSNADNERSIPSLVDGLKPGQRKVMFTCFKRNDKREVKVAQLSGSVAEMSAYHHGEVSLQMTIVNLAQNFVGANNINLLEPRGQFGTRLSGGKDCASARYIFTIMSPLTRLIYHPLDDPLLDYQVDDGQKIEPLWYLPIIPMVLVNGAEGIGTGWSTKISNYNPREIMKNLRKMINGQEPSVMHPWYKNFLGRMEYVSDGRYIQTGNIQILSGNRLEISELPVGVWTQNYKENVLEPLSNGTEKVKGIISEYREYHTDTTVRFVISFAPGEFERIHAEEGGFYRVFKLTTTLSTNQMHAFDQNNCLRRFPTAIDILKEYYKLRREYYARRRDFLVGQLTAQADRLSDQARFILEKCEKKLVVENKQRKAMCDELLKRGYRPDPVKEWQRRIKMEDAEQADEEDEEEEEAAPSVSSKAKKEKEVDPEKAFKKLTDVKKFDYLLGMSMWMLTEEKKNELLKQRDTKLSELESLRKKTPEMLWLDDLDALESKLNEVEEKERAEEQGINLKTAKALKGQKSASAKGRKVKSMGGGAGAGDVFPDPDGEPVEFKITEEIIKKMAAAAKVAQAAKEPKKPKEPKEPKVKKEPKGKQIKAEPDASGDEVDEFDAMVEGGSKTSPKAKKAVVKKEPGEKKPRQKKENGGGLKQSKIDFSKAKAKKSDDDVEEVTPRAERPGRRQASKKIDYSSLFSDEEEDGGNVGSDDDGNASDDDSPKRPAKRGREDESSGGAKKKAPPKKRRAVIESDDDDIEIDEDDDDDSDFNC"}},
  "key": {"[1]": {"target": "MEP-1 (Drosophila melanogaster (endogenous in S2 cells))", "test": "co-IP; endogenous proteins from S2 cell extracts after RNase treatment, Western blot for Topo II"}, "[2]": {"target": "MEP-1 (Drosophila melanogaster (endogenous in S2 cells))", "test": "co-IP; endogenous proteins: 2 mg untransfected S2 cell extract with a specific antibody (anti-MEP-1, anti-Mi-2 or anti-p66) overnight at 4 °C, Protein G agarose, Western blot; with or without MSL2 knockdown; mock IP with generic IgG"}},
  "note": "Results are given in words; binding and its absence hold for the method and conditions named. Binding seen in cells or lysates may run through a third protein. For some assays here: Binding can be weak; no strength is given.",
  "data": [
    {"binder": "B1", "values": [
      {"measurement": "binding", "setting": "[1]", "value": "no binding (only after RNase treatment)"},
      {"measurement": "binding", "setting": "[2]", "value": "binds"}
    ]}
  ]
}
